Results are given in words; binding and its absence hold for the method and conditions named. In cells and extracts the contact can be indirect. These calls come from enrichment with a bait or labelling near it, and not all partners need be listed.

Protein sequences, listed by entry. Tags and fused reporters are not part of them. Lines headed by an entry give the natural chain unless they say otherwise; changes in a name come on top. Chains listed by the source or under a name are the forms on record and can include a tag or linker.
ZNF207 with a C-terminal miniTurbo tag (O43670, form named): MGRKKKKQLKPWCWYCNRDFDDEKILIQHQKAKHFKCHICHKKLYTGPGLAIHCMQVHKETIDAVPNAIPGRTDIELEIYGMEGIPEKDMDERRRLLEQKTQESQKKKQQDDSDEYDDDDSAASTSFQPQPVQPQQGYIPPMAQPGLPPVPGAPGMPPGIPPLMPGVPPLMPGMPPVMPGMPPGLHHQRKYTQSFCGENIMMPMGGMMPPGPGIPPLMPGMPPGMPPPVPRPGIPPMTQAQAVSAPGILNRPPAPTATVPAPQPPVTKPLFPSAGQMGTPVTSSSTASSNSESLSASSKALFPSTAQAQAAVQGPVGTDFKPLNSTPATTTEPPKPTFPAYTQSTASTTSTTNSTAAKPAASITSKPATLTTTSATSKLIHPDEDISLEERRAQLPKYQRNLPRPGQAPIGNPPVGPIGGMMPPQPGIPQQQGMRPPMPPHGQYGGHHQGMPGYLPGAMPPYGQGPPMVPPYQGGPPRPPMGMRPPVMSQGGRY
UniProt O43684: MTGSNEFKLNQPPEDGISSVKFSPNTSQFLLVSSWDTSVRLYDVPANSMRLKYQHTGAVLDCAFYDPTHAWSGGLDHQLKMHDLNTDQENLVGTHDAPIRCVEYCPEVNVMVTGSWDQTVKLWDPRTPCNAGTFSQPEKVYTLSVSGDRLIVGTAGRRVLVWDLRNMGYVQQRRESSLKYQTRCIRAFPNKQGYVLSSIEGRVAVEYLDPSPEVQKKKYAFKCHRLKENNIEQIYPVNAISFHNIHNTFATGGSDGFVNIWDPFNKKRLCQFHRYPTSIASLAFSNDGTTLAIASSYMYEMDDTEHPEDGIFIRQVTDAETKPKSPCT

The target of this test is ZNF207 with a C-terminal miniTurbo tag (human) (UniProt O43670). The test is described as follows: proximity labelling; miniTurboID: HEK293 Flp-In cells expressing ZNF207-miniTurbo (doxycycline 0.5 ug/mL), 50 uM biotin, streptavidin capture, mass spectrometry, triplicate; controls miniTurbo-Empty and miniTurbo-EGFP.

For BUB3 (from UniProt O43684 1-328), the binding entry is “binds”.

For the origin of these results see publication doi:10.1101/2025.04.25.648738.
